doi:10.1101/2021.06.17.448807
These are yes or no findings as the source states them, for the method shown. In cells and extracts the contact can be indirect. Some results given as binding are weak or reduced against the parent protein; the word gives no strength.

Protein sequences, listed by entry. Tags and fused reporters are not part of them.
UniProt O70133: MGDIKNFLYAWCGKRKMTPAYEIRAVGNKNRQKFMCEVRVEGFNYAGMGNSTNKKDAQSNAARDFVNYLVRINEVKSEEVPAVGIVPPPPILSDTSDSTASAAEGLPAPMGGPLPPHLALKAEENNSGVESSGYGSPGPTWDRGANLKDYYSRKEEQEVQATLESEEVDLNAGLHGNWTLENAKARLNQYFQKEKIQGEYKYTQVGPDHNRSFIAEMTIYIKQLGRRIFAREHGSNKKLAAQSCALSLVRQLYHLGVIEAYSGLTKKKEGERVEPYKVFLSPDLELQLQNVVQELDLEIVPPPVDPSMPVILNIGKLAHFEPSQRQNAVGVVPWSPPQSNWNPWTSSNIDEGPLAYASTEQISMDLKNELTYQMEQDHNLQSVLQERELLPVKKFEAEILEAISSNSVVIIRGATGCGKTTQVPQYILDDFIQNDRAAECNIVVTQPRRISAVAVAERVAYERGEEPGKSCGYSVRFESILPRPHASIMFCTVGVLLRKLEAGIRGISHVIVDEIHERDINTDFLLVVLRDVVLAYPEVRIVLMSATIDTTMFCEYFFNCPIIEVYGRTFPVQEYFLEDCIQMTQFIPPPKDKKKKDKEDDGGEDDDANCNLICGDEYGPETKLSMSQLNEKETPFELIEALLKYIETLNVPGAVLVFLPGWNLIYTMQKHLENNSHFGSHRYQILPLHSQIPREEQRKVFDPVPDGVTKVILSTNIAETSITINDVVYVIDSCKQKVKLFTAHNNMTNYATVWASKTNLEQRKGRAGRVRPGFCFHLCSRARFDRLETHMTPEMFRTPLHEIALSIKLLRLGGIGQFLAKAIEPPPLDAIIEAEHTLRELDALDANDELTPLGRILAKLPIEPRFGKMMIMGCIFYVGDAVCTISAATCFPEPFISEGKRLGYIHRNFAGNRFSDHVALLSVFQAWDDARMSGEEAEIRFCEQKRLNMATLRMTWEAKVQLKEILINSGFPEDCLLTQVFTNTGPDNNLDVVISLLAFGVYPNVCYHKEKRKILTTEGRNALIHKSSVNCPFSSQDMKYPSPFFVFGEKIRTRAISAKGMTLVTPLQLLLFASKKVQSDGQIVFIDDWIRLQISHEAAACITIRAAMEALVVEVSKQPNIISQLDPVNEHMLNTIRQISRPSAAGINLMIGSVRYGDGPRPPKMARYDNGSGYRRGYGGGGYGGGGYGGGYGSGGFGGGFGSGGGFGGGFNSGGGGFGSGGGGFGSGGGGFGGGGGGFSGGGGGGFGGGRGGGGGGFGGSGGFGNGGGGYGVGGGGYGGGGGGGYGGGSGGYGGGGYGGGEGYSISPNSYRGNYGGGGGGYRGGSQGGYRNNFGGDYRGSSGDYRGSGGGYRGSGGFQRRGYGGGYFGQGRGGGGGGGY
UniProt Q61584: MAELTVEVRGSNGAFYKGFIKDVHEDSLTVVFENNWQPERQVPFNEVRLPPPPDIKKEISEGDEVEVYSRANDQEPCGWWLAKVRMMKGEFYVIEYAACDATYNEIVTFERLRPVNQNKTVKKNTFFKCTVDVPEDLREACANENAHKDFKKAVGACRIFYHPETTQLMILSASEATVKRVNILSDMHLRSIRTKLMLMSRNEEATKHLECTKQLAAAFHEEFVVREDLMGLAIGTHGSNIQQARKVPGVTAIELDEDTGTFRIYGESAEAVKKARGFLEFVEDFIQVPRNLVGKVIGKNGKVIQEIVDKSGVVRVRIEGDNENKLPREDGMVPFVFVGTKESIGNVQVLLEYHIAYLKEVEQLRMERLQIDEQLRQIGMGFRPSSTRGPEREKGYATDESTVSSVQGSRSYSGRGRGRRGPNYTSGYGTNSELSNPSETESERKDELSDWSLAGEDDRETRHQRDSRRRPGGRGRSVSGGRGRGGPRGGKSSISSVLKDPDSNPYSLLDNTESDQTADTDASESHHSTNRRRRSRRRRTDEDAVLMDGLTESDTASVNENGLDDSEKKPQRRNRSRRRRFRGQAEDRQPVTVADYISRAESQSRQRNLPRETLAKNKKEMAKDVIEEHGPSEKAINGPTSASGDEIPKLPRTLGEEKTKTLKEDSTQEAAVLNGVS

Target: T1, Transcription factor-like 5 (mouse (endogenous in testis)) (UniProt Q32NY8)
T1 sequence: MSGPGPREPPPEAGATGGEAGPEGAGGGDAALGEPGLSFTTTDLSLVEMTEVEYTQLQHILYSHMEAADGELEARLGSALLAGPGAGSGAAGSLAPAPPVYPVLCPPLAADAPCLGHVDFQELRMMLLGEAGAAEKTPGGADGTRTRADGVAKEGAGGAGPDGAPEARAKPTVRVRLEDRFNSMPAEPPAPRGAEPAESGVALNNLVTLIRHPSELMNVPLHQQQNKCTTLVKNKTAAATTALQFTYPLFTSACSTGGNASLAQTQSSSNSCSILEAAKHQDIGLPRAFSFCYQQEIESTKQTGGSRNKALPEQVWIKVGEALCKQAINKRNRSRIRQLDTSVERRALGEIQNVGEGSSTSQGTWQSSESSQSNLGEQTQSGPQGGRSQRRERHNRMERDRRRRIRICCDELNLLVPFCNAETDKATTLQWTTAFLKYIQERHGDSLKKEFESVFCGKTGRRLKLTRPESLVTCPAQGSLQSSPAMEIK
Test: co-IP

Substance	binding
DExH-box helicase 9 (from UniProt O70133 1-1380)	binds
fragile-X mental retardation syndrome-related protein 1 (from UniProt Q61584 1-677)	binds
